# Patent US6700013B2, “Tricyclic fused heterocycle compounds, process for preparing the same and use thereof” (Nippon Suisan Kaisha, Ltd., priority 1999, dated 2004)
# At least one structure is not confirmed: it was looked up by name or label, or the drawing left a doubt.
# Tested on: actively sensitized guinea pigs
# Assay: Antigen induced airway hypersensitivity, airway reactivity to acetylcholine (PC100ACh)
# Assay type: in vivo, guinea pig
# Details: orally 10 mg/kg 16 hours and 2 hours before the OVA challenge
# Description: Bronchial asthma is a disease characterized by bronchial contraction, airway hypersensitivity and infiltration of inflammatory cells into the airway. Airway hypersensitivity is a condition in which the airway sensitively produces a contraction response to various slight stimuli. Particularly, airway hypersensitivity is considered to be a common feature among patients suffering from allergic bronchial asthma. This experimental system in which actively sensitized guinea pigs are used is useful as a airway hypersensitivity model. […]
# The specific airway resistance (sRaw) of wake guinea pigs was measured by the double flow plethysmography with the use of airway resistance measuring equipment (“Pulmos-1”, M.I.P.S., Japan).
# […], from twenty-two to twenty-six hours after the antigen challenge, the guinea pigs were placed in an animal chamber and allowed to inhale a physiological saline and acetylcholine (hereinafter referred to as “ACh”) solutions of 0.0625, 0.125, 0.25, 0.5, 1 and 2 mg/mL , respectively, in the order named, each for one minute until sRaw came to the value at least twice the baseline sRaw (sRaw after the inhalation of the physiological saline). The ACh concentration (hereinafter referred to as “PC100ACh”) necessary for 100% increase in the baseline sRaw was calculated from the concentration of ACh and sRaw-resistance curve. […]
smiles,measurement,value
"C[C@@H]1C[C@H]2[C@@H]3CCC4=CC(=O)C=C[C@]4(C)[C@@]3(F)[C@@H](O)C[C@]2(C)[C@@]1(O)C(=O)CO [dexamethasone, Dexamethasone]",airway hypersensitivity compared to the control group,significantly inhibited
